# Screening data, single-dose tests

The values are deposited in ChEMBL (CHEMBL3988442, “University of Dundee, Small-Polar-MMV Screening Library” (2021)).

The filed quantity is “Percent Effect” (%). How 0% and 100% were set is not recorded. Most values in the screen are low, and negative values occur. This is an unselected part of the compounds tested. Two or more numbers in one place are separate tests of the same structure; such repeats can differ widely.

A: 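Phenotypic screen: M. tuberculosis growth, glucose 7H9 medium, 3 days; the read-out is not stated. Concentration: 50 µM. Higher reads as more growth inhibition (inferred: compounds with an IC50 in retests scored well above the rest). Of about 69,000 compounds tested this way, about 760 (1.1%) reached 50% or more in at least one test.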
B: 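Whole-cell growth test on Mycobacterium tuberculosis, read after 4 days in a medium based on cholesterol and the lipid DPPC; the read-out is not stated. Concentration: 50 µM. Higher reads as more growth inhibition (inferred: compounds with an IC50 in retests scored well above the rest). Of about 69,000 compounds tested this way, about 370 (0.54%) reached 50% or more in at least one test.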

{"smiles": "Cc1nc(C(=O)N2CCCC(c3cccc(-n4ccnc4)n3)C2)co1", "stereo": "stereo not shown", "A": -10.58, "B": -13.02}
{"smiles": "CCn1cc(NC(=O)NCC(C)N2CCCC2)cn1", "stereo": "stereo not shown", "A": -37.87, "B": 2.424}
{"smiles": "CC(C)Oc1cccc(C(O)CNC(=O)CCc2ccncc2)c1", "stereo": "stereo not shown", "A": 13.87, "B": 5.826}
{"smiles": "Cc1cc(=O)[nH]c(-n2nc(C)c(CCC(=O)NCc3ccco3)c2C)n1", "A": 9.679, "B": -21.51}
{"smiles": "CNc1nc2c(s1)C(=O)CN(C(=O)NCc1ccccc1)C2", "A": -18.56, "B": -5.781}
{"smiles": "O=C(Cc1n[nH]c(-c2cncc(Br)c2)n1)NCc1ccncc1", "A": -2.09, "B": -6.925}
{"smiles": "[H][C@@]12CN(C(=O)N(C)C)C[C@@]1([H])N(CC(C)C)C(=O)CO2", "A": "-36.77 & -6.429", "B": -10.57}
{"smiles": "COc1ccc(CN2CCC(c3nccnc3-n3ccnc3)CC2)cc1", "A": -31.73, "B": -0.9102}
{"smiles": "O=C(O)c1ccccc1CN1CCCC(Cc2ccn[nH]2)C1", "stereo": "stereo not shown", "A": -28.19, "B": "-10.62 & -7.769"}
{"smiles": "O=C(CCN1CCCC1c1cccc2c1OCCO2)N1CCCCC1", "stereo": "stereo not shown", "A": 41.17, "B": "36.73 & 9.552"}
{"smiles": "CC(NCc1cccc(S(=O)(=O)N(C)C)c1)c1cccnc1", "stereo": "stereo not shown", "A": -15.95, "B": -14.69}
{"smiles": "c1ccc(-n2cc(CN3CCCC3Cn3cccn3)nn2)cc1", "stereo": "stereo not shown", "A": -15.88, "B": -24.54}
{"smiles": "CC(C)(NC(=O)c1scnc1Cl)c1ccccc1", "A": "-9.686 & -17.11", "B": -23.52}
{"smiles": "CS(=O)(=O)Nc1cccc(C(=O)Nc2ccc3c(c2)C(=O)NC3)c1", "A": -9.848, "B": 1.22}
{"smiles": "CCn1ncnc1C(C)NC(=O)COc1ccc(Cl)cc1Cl", "stereo": "stereo not shown", "A": "1.28 & 3.681", "B": 23.64}
{"smiles": "Cc1csc(CN2CC(CO)Oc3ccccc32)n1", "stereo": "stereo not shown", "A": "9.746 & 6.751", "B": -5.457}
{"smiles": "O=C(NC1CCN(C2CC2)CC1)c1cn(-c2ccc(Cl)cc2)nn1", "A": -28.81, "B": -14.72}
{"smiles": "Cn1cnnc1SCC(=O)NC1CC(=O)N(CCc2ccccc2)C1", "stereo": "stereo not shown", "A": "-1.124 & -0.7265", "B": 9.372}
{"smiles": "CCOCC(O)CN1CCN(C(=O)Cc2ccc3c(c2)CCO3)CC1", "stereo": "stereo not shown", "A": -12.9, "B": -22.21}
{"smiles": "Cc1nc(C)n(CC2CCCCN2CCCN2CCCC2=O)n1", "stereo": "stereo not shown", "A": -49.51, "B": "13.58 & 2.707"}
{"smiles": "CCc1nn2c(=N)c(C#N)n[nH]c2c1-c1ccc(OC)cc1", "A": 19.38, "B": 15.13}
{"smiles": "COCCOc1ncccc1CNC(=O)N1CCCCCC1", "A": "14.35 & -0.2756", "B": -5.619}
{"smiles": "CCN(Cc1ccccc1O)CC1(C)Cc2c(N)nc(N)nc2O1", "stereo": "stereo not shown", "A": -41.77, "B": "-0.5887 & 9.875"}
{"smiles": "O=C(c1ccc(F)cc1Cl)N1CCC(Nc2cccnn2)CC1", "A": 10.2, "B": 3.835}
{"smiles": "CC(Cn1cccn1)NC(=O)Nc1nccs1", "stereo": "stereo not shown", "A": -7.816, "B": 4.605}
{"smiles": "Cc1cc(C(C)NC(=O)CCn2nnc3ccccc3c2=O)c(C)o1", "stereo": "stereo not shown", "A": -10.87, "B": -5.981}
{"smiles": "COCCN(CCOC)C(=O)c1ccn(-c2ccccc2Cl)n1", "A": "-4.749 & -13.6", "B": -9.932}
{"smiles": "O=C(CCn1nc(C(=O)Nc2ccccc2)ccc1=O)Nc1nccs1", "A": -1.766, "B": -2.575}
{"smiles": "CCCC(NC(=O)c1cc(C)ccc1O)c1nnn[nH]1", "stereo": "stereo not shown", "A": -4.976, "B": "-5.748 & -13.72"}
{"smiles": "O=C(c1ccc[nH]1)N1CCc2c(cccc2S(=O)(=O)N2CCOCC2)C1", "A": 12.8, "B": 20.62}
{"smiles": "CCc1nccn1CCC(=O)N1CC[C@@H](c2sccc2C)[C@H](O)C1", "A": 9.782, "B": "2.118 & -2.345"}
{"smiles": "[H][C@]12CCN(C(=O)c3ccoc3)[C@@]1([H])CC[C@@H](COCc1ccccn1)O2", "A": -28.08, "B": -20.07}
{"smiles": "NC(=O)CCC1CCCN(c2ccnc3cc(F)ccc23)C1", "stereo": "stereo not shown", "A": 11.57, "B": 0.1844}
{"smiles": "O=C(c1ccc2c(c1)[nH]c(=O)n2[C@H]1CC[C@H](O)CC1)N1CCOCC1", "A": 8.605, "B": 6.166}
{"smiles": "Cc1nc(CNc2ccc(C(=O)NCc3ccco3)cc2C)no1", "A": "16.66 & 7.719", "B": 1.764}
{"smiles": "Cc1nc(NC2CCCC2)cc(C2CCN2C(=O)c2cnn(C)c2)n1", "stereo": "stereo not shown", "A": 13.05, "B": -6.219}
{"smiles": "FC(F)(F)c1cccc(C2(CNCc3cc[nH]c3)CCOCC2)c1", "A": 19.27, "B": 16.77}
{"smiles": "COc1ccc(CCNC2CCCN(c3ccc(C)nn3)C2)cc1", "stereo": "stereo not shown", "A": 5.955, "B": -7.074}
{"smiles": "[H][C@@]12CCN(C(=O)Cc3ccc(F)cc3OC)C[C@]1([H])OCCNC2=O", "A": -18.85, "B": -25.81}
{"smiles": "COCC1COCCC12CCN(C(=O)CC1Cc3ccccc3C1)CC2", "stereo": "stereo not shown", "A": -4.335, "B": -30.77}
{"smiles": "CC(C)(C)S(=O)(=O)CCNC(=O)c1ccc2cc[nH]c2c1", "A": -7.276, "B": 0.4445}
{"smiles": "CC(C)O[C@H]1CN(Cc2cnc3c(-c4ccccc4)cnn3c2)C[C@@H]1O", "A": "14.47 & 5.289", "B": 2.53}

The first 5 entries again:

| SMILES | A | B |
|---|---|---|
| `Cc1nc(C(=O)N2CCCC(c3cccc(-n4ccnc4)n3)C2)co1` (stereo not shown) | -10.58% | -13.02% |
| `CCn1cc(NC(=O)NCC(C)N2CCCC2)cn1` (stereo not shown) | -37.87% | 2.424% |
| `CC(C)Oc1cccc(C(O)CNC(=O)CCc2ccncc2)c1` (stereo not shown) | 13.87% | 5.826% |
| `Cc1cc(=O)[nH]c(-n2nc(C)c(CCC(=O)NCc3ccco3)c2C)n1` | 9.679% | -21.51% |
| `CNc1nc2c(s1)C(=O)CN(C(=O)NCc1ccccc1)C2` | -18.56% | -5.781% |